Data from patent publication US20220204644A1 (MAB DISCOVERY, published 2022).
Results are given in words; binding and its absence hold for the method and conditions named. Some results given as binding are weak or reduced against the parent protein; the word gives no strength.

Columns and labels:
[1] = biological target: HER2 sub-domain III, recombinant (human) (UniProt P04626); assay: ELISA, coated HER2 domain, antibody at 10 µg/ml
[2] = biological target: HER2 fusion-protein containing sub-domain III and IV (human) (UniProt P04626); assay: ELISA, coated HER2 domain, antibody at 10 µg/ml

binding [1]: binds
binding [2]: binds
B1: B100 anti-HER2 monoclonal antibody (antibody, V domains shown)
VH: QSVEESGGRLVTPGTPLTLTCTVSGFSLSNYGVSWVRQAPGKGLEYIGIISGSGFTYYASWAKGRFTISKTSTTVDLKITSPTTKDTATYFCARGVVPGYNAGGLWGQGTLVTVSS
VL: DIVMTQTPASVSEPVGGTVTIKCQASQGISTALAWYQQKPGQRPKLLIYSASTLASGVSSRFKGSGSGTQFTLTISDLECADAATYYCQCTAAGSVSVGAFGGGTEVVVN
notes: It was detected in the ELISA with an anti-human F(ab)2 conjugate; also called B100 antibody
